From publication PMC7819943, “Rice protein-binding microarrays: a tool to detect cis-acting elements near promoter regions in rice”
This is one part of the list.

Chains of the proteins cited; added tags and fusions are not shown.
UniProt Q0JBA9, entry or part of it: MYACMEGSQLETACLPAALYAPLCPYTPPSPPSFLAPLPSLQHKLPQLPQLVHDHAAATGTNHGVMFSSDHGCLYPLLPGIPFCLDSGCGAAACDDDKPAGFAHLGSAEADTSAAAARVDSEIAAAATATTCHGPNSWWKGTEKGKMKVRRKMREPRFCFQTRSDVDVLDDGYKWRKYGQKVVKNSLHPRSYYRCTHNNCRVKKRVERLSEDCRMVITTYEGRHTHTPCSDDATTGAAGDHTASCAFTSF

What follows are sequences tested against OsWRKY34 (Oryza sativa, UniProt Q0JBA9 1-250) (assay: protein-binding microarray (RPBM); PBS, 2% BSA, 51.3 ng/ul salmon testes DNA, 50 uM zinc acetate, 200 nM TF, 25 C, 1 h; high values mean tight binding). Details: protein: recombinant; tags: N-terminal polyhistidine and DsRed monomer fusion (pET32a); label: CyDye5-dUTP incorporated in the synthesized complementary strand; 3' TTTTT single-stranded linker to array surface; dsDNA, one strand shown.
Procedure, shortened: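 For the binding signal, per-feature fluorescence intensity was read in arbitrary units on an Axon 4000B scanner. Before scanning, a 2% BSA-blocked custom Agilent array made double-stranded with Cy5-dUTP was washed after 1 h at 25 °C with 200 nM protein and 50 µM zinc acetate. The proteins were Ni–NTA-purified transcription factors with N-terminal polyhistidine and DsRed fusions, expressed in E. coli BL21-CodonPlus.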

Compared with “GTGTTCAGGGCTAGGATCAGGGTAGGAGGGGAAATTCCTTCGGAGTCACCTAGTGCAG”, “TCCAATCTCCGTCTCCGCGTCTACTTCCGCAACTTCACCGCGGAGTCACCTAGTGCAG” is higher in binding signal: 8480 fluorescence intensity (a.u.) for the first, 13000 fluorescence intensity (a.u.) for the second.

Compared with “TACTGCCGTCGCCGTCGCCCCACGTTTCCTTCTCCAGTTTCGGAGTCACCTAGTGCAG”, “ATCATCCTCATCGTCATCGTCTCTCTTATCTTTTCTACGGCGGAGTCACCTAGTGCAG” is higher in binding signal: 8300 fluorescence intensity (a.u.) for the first, 13800 fluorescence intensity (a.u.) for the second.

Compared with “GGCTAAACATATTCTTTAGTCCCGTTTGTAACAGGAACCGCGGAGTCACCTAGTGCAG”, “GGATGAAGAAGGCTTTCGGGGTTTGGGATGTCGCGGGGATCGGAGTCACCTAGTGCAG” is higher in binding signal: 8310 fluorescence intensity (a.u.) for the first, 8820 fluorescence intensity (a.u.) for the second.

Compared with “CCAGATCGACCGCCACCCCATTCGGATTCATCACCTCCATCGGAGTCACCTAGTGCAG”, “GCTGTATTCTGTGGAGTCGTATCCCAAGCCAATTTTATTTCGGAGTCACCTAGTGCAG” is higher in binding signal: 8250 fluorescence intensity (a.u.) for the first, 8440 fluorescence intensity (a.u.) for the second.

Compared with “TTTCATCAGCTCATCACTTCTGCATGCATGTTATATTCTTCGGAGTCACCTAGTGCAG”, “ACTCATGGTGACGTGGACGAATCTCGAACATCCATTTCTCCGGAGTCACCTAGTGCAG” is lower in binding signal: 14300 fluorescence intensity (a.u.) for the first, 8240 fluorescence intensity (a.u.) for the second.

Compared with “AACAAAAGCACCCCTGTCCGATCCTATATTTGTTGCAGTTCGGAGTCACCTAGTGCAG”, “TGTTTGCACCTTATTACGGTTCTGCGCGCTCTCTCTCTCGCGGAGTCACCTAGTGCAG” is lower in binding signal: 9240 fluorescence intensity (a.u.) for the first, 8560 fluorescence intensity (a.u.) for the second.

First: GTACCTAATCCGTGCCAAGATCATGCTTTTTTTCCTCAAACGGAGTCACCTAGTGCAG
Second: GCTATAGCCTACAGCTAGTACAACACCCACGCGTCTACTACGGAGTCACCTAGTGCAG
The binding signal of the first is higher: 8930 fluorescence intensity (a.u.) for the first, 8110 fluorescence intensity (a.u.) for the second.

Going from “GATAATCAATCCCACGTGTATGTCAGTGGGCCCCGCGGGCCGGAGTCACCTAGTGCAG” to “CTCCTTGTTGCTTGCTTGCTTGGTCTTTTCAGCTTCCTTTCGGAGTCACCTAGTGCAG”, the binding signal rises from 8210 fluorescence intensity (a.u.) to 10800 fluorescence intensity (a.u.).

Compared with “TGTTCTTCTCTTGTAGCTGTACTGCCCAACCCTGTTATTCCGGAGTCACCTAGTGCAG”, “CCCCAAAACCTTCTCATTTTTTTTGTAGACCAAGCCAAGCCGGAGTCACCTAGTGCAG” is higher in binding signal: 8590 fluorescence intensity (a.u.) for the first, 8610 fluorescence intensity (a.u.) for the second.

Going from “TGTTGCCGTTTTAAAGCACTTTTTGCTATTTTGGATCTAACGGAGTCACCTAGTGCAG” to “AAATCGCCGACCCACACAACCCGCAACCCCACATCTCTCACGGAGTCACCTAGTGCAG”, the binding signal rises from 8430 fluorescence intensity (a.u.) to 12500 fluorescence intensity (a.u.).

Compared with “CTCATTGTTCAGTCTGACTGCCTGAGTCTTTTTCCTGGAACGGAGTCACCTAGTGCAG”, “TTTGTCCCGATCAATAACAATCTTTCCTCTCGACGAAAGCCGGAGTCACCTAGTGCAG” is lower in binding signal: 10000 fluorescence intensity (a.u.) for the first, 8210 fluorescence intensity (a.u.) for the second.

Going from “TGAGGGGTTTTTTATTCCAATAAATTGTTCGTTACCGTATCGGAGTCACCTAGTGCAG” to “GGAGGTGGAGGCGGCGGAGGAGGTGGTGGTGGAGGTGGAGCGGAGTCACCTAGTGCAG”, the binding signal rises from 8060 fluorescence intensity (a.u.) to 17900 fluorescence intensity (a.u.).

Going from “AAGAATTACAAAACTCATGTGTTCCACCGCTACTAGCGACCGGAGTCACCTAGTGCAG” to “GGTATTTCAGTTCCTTTTAGCAGTCAAGTCATGATAGTTACGGAGTCACCTAGTGCAG”, the binding signal falls from 8300 fluorescence intensity (a.u.) to 8100 fluorescence intensity (a.u.).

Compared with “ATACTACTTGCGCCTGTTTGGAGTCGAGACACATTGACAACGGAGTCACCTAGTGCAG”, “AGCTTACCCAGCTCGCGCGAATGGCCTCCTACGACGGCGGCGGAGTCACCTAGTGCAG” is lower in binding signal: 9210 fluorescence intensity (a.u.) for the first, 9110 fluorescence intensity (a.u.) for the second.

Compared with “CTTTCGTCTTCGTCTTCGCCATCGTCGTCGGGACATCGCCCGGAGTCACCTAGTGCAG”, “CACCACGCGTTCACACGGCCACGTCAGCCTACTACGCCTGCGGAGTCACCTAGTGCAG” is lower in binding signal: 8460 fluorescence intensity (a.u.) for the first, 8030 fluorescence intensity (a.u.) for the second.

First: GTTCTCGTGTGGACTTTATTCCCTGCCGATCCGTTCCGGCCGGAGTCACCTAGTGCAG
Second: CTTCTTACGTATCGGTTTCGATTATTTTGGTTATTGTGTTCGGAGTCACCTAGTGCAG
The binding signal of the first is lower: 10500 fluorescence intensity (a.u.) for the first, 12800 fluorescence intensity (a.u.) for the second.

Compared with “TTTCTAGGCGAGTTATAAGATTAGTTTTTTCATTCGTGTCCGGAGTCACCTAGTGCAG”, “CTGGTTGGCTGGTTCTTCAGGATTTGGATCTGTGGTCCTGCGGAGTCACCTAGTGCAG” is higher in binding signal: 8210 fluorescence intensity (a.u.) for the first, 8400 fluorescence intensity (a.u.) for the second.

First: CTTTTGAAGCTTGACGGGTTTTGACTTGGTGCACTGATTACGGAGTCACCTAGTGCAG
Second: GGATAGCCTTGCCTAACGTTATTTTCTGTCAACTTCGACTCGGAGTCACCTAGTGCAG
The binding signal of the first is higher: 10100 fluorescence intensity (a.u.) for the first, 9160 fluorescence intensity (a.u.) for the second.

Compared with “CTTATCCCGCGATCCGAACACCATCCACTCGCCGCGCCAACGGAGTCACCTAGTGCAG”, “GTAATAGTCAATTCATACAATAGTTGTTTACTATACTATTCGGAGTCACCTAGTGCAG” is lower in binding signal: 9780 fluorescence intensity (a.u.) for the first, 8190 fluorescence intensity (a.u.) for the second.

First: TTTCCTCCATTTTCTCAATCCTACATTTCAAAGGAGCCCACGGAGTCACCTAGTGCAG
Second: TGCGTGACGTGGGGATGAGATTGCGTTGTTGCTGCGCCCGCGGAGTCACCTAGTGCAG
The binding signal of the first is lower: 8690 fluorescence intensity (a.u.) for the first, 8830 fluorescence intensity (a.u.) for the second.

Going from “TGTCTGTGTCAATTGTGCCATCCTAACCAAATGTTCGTAGCGGAGTCACCTAGTGCAG” to “GTGCTCTTGTATCTTTTTAGCTATGTATATCCCTCGTGGACGGAGTCACCTAGTGCAG”, the binding signal falls from 8960 fluorescence intensity (a.u.) to 8650 fluorescence intensity (a.u.).
